The list is a part of this screen's results and no random one: it gathers tests that were run many times, whatever their T/C, doses with no T/C, and many T/C values between a quarter and a half above the control. Further doses and runs are listed elsewhere. T/C gives the treated animals as a percentage of the vehicle group. Some entries give survivors of the animals treated and no T/C: the source holds a T/C of zero for them, seemingly a mark for toxic or unscored doses. Counts of survivors are from the toxicity check (mostly the fifth day) where no day follows; animals may have died later. Schedules are NCI's codes, taken here to give the interval after Q, in days (D) or hours (H), and the number of doses after X.

For this assay, the system named is P388 leukemia ip, CD2F1 mice, survival T/C. Nature of the assay: NCI In Vivo Anticancer Drug Screen. Data for tumor model P388 Leukemia (intraperitoneal) in CD2F1 (CDF1) mice. The note with it: T/C endpoint: median survival time, schedule: Q01DX009 (ip), vehicle: saline with Tween-80, higher T/C = longer survival.

Consider `CCOC(=O)/C=C(/C)Sc1cc(O)c2ccccc2c1O`, for which the survivor count (dose: 12.5 mg/kg/injection) is recorded as 2 of 6; the survivor count (dose: 25.0 mg/kg/injection) was 1 of 6; the survivor count (dose: 50.0 mg/kg/injection) is recorded as 0 of 6; the survivor count (dose: 100.0 mg/kg/injection) is 0 of 6; the survivor count (dose: 200.0 mg/kg/injection) is given as 0 of 6.

(Values after PubChem BioAssay AID330 (DTP/NCI, 2004).)
